Laboratory results published in PubChem BioAssay AID493014 (National Center for Advancing Translational Sciences (NCATS), 2011).
The other results are listed elsewhere or left out. Shown are side measurements of this screen, not its main read-out; they come without a call. Most of these compounds were active or inconclusive in the main read-out, so they are no random draw. Words in brackets tell the shape of the fitted curve; partial curves, single points and poor fits give uncertain potencies.

Test: qHTS Assay to Find Inhibitors of Chronic Active B-Cell Receptor Signaling
Conditions: ABC-DLBCL IkBa-CBG/CBR reporter, luminescence ratio (green luciferase fused to IkBa over red control in TMD8 lymphoma cells), 4 h
How it was run: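 Concentration-response series (up to 46 uM) were applied to TMD8 dual-reporter cells for 4 h at 37C with doxycycline. Green/red ratio, after filter-overlap correction, defined %Activity; red signal alone was normalised to basal cells and zero luminescence.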

[1] = measured here: CBR red luminescence, cell number
[2] = measured here: IkBa-CBG green luminescence

| SMILES | AC50 [1] | AC50 [2] |
| --- | --- | --- |
| CCOc1ccc2nc(SCC(=O)NC(=O)C(C)C)sc2c1 | 10 µM [falling, partial curve, poor fit] |  |
| O=c1c2ccccc2nc(/C=C\c2ccc(F)cc2)n1-c1ccccc1F | 25.1 µM [rising, partial curve, poor fit] |  |
| CC(C)=CCc1c2c(c3occ(-c4ccc(O)cc4)c(=O)c3c1O)C=CC(C)(C)O2 | 11.2 µM [rising, partial curve] |  |
| Cc1cccnc1-n1c(-c2ccco2)nc2ccccc2c1=O | 3.55 µM [falling, single point] |  |
| C[C@]12CCC(=O)C=C1CC[C@@H]1[C@@H]2CC[C@@]2(C)[C@H]1CC[C@]2(C)O | 2.24 µM [rising, partial curve, poor fit] |  |
| Cc1ccccc1C1=NCC(=S)Nc2ccc(Cl)cc21 | 1.16 µM [falling, full curve, poor fit] |  |
| COC(=O)C1=C(c2ccc(F)cc2OCc2ccccc2)C[C@@H]2CC[C@H]1N2C(=O)NC1CC1 | 23.1 µM [falling, partial curve, poor fit] |  |
| CN1CCc2c(C#N)c(Cl)nc(Cl)c2C1 | 3.26 µM [falling, full curve, poor fit] |  |
| COC(=O)C1=C(c2cccc(OCc3ccccc3)c2)C[C@@H]2CC[C@H]1N2C(=O)NCCOc1ccccc1 | 23.1 µM [falling, single point] |  |
| O=C(N/N=C\c1ccc([N+](=O)[O-])o1)c1cncc(Br)c1 | 28.2 µM [falling, single point] |  |
| CN=c1scc(C)n1/N=C/c1ccc(O)cc1O | 10 µM [falling, partial curve, poor fit] |  |
| CCCCCCOc1ccc(CN2CCN(C)CC2)cc1 | 4.61 µM [falling, single point] | 2.91 µM [rising, single point] |
| Cc1nc2cc(-c3ccccc3)nn2c(C)c1CCC(=O)N1CCC2(CC1)OCCO2 | 2.31 µM [falling, full curve] |  |
| Cc1ccc(CC2C(=O)N(C)C(=O)N(C)C2=O)s1 | 0.58 µM [falling, full curve] |  |
| CCCCCn1c(N)c(C(=O)NCCN2CCOCC2)c2nc3ccccc3nc21 | 35.5 µM [falling, single point] |  |
| O=C1CN=C(c2ccccc2)c2oc3ccc(Br)cc3c2N1 | 3.55 µM [rising, full curve] |  |
| COC(=O)C1=C(c2ccc(OC(F)(F)F)cc2)C[C@@H]2CC[C@H]1N2C(=O)NCCOc1ccc(OC)cc1 | 18.4 µM [falling, single point] |  |
| COC(=O)C1=C(c2cccc(OCc3ccccc3)c2)C[C@@H]2CC[C@H]1N2C(=O)NCc1ccc(OC)c(OC)c1 | 20.6 µM [falling, partial curve] |  |
| O=C(O)c1ccccc1-c1ccc(C=C2C(=O)N(c3ccccc3)C(=S)N(c3ccccc3)C2=O)o1 | 14.1 µM [falling, single point] |  |
| O=c1c(O)c(-c2ccc(O)c(O)c2)oc2cc(O)cc(O)c12 | 35.5 µM [falling, single point] |  |

Part of the list above, reformatted.
SMILES | AC50 [1] | AC50 [2]
O=c1c2ccccc2nc(/C=C\c2ccc(F)cc2)n1-c1ccccc1F | 25.1 µM [rising, partial curve, poor fit] | 
CC(C)=CCc1c2c(c3occ(-c4ccc(O)cc4)c(=O)c3c1O)C=CC(C)(C)O2 | 11.2 µM [rising, partial curve] | 

Carrying on:

| SMILES | AC50 [1] | AC50 [2] |
| --- | --- | --- |
| Cc1cccc(-n2c(O)c(C=Nc3ccc(Br)cn3)c(=O)[nH]c2=O)c1 | 25.1 µM [falling, single point] |  |
| O=C(COC(=O)Cc1ccccc1)Nc1ccc(F)cc1 | 0.355 µM [rising, full curve, poor fit] |  |
| CC(C)(C)NC(=O)C1CC2CCCCC2CN1 (stereo unspecified) | 3.98 µM [falling, single point] |  |
| CCOc1ccc(-n2c(O)c(C=NCCN(CC)CC)c(=O)[nH]c2=O)cc1 | 29.1 µM [rising, single point] |  |
| CC(C)C1CC(=O)NC(SCC(=O)Nc2ccc(Br)cc2)=C1C#N (stereo unspecified) | 12.6 µM [falling, partial curve, poor fit] |  |
| Cc1c(/C=N/O)c2ccccc2n1C | 18.4 µM [rising, single point] |  |
| COC(=O)C1=C(c2ccccc2OCc2ccccc2)C[C@@H]2CC[C@H]1N2C(=O)NCc1ccccc1 | 20.6 µM [falling, single point] |  |
| CC(C)c1ccc2oc(-c3cc(N)ccc3O)nc2c1 | 35.5 µM [falling, partial curve, poor fit] |  |
| Cc1cc(C(=O)OCC(=O)Nc2c(F)cccc2F)c(C)n1C1CC1 | 0.164 µM [falling, full curve, poor fit] |  |
| O=C(N/N=C/c1ccoc1)c1ccccc1O | 10 µM [falling, partial curve, poor fit] |  |
| C=Cn1ccnc1P(=S)(c1c(C)nn(-c2ccccc2)c1C)c1nccn1C=C | 14.1 µM [falling, partial curve] | 35.5 µM [rising, partial curve, poor fit] |
| CCOC(=O)C1CCCN(c2ccc([N+](=O)[O-])c3nonc23)C1 (stereo unspecified) | 11.2 µM [rising, partial curve, poor fit] |  |
| COc1ccccc1N1CCN(C(=O)Oc2ccccc2)CC1 | 0.82 µM [rising, full curve, poor fit] |  |
| CN1CCN(CCOC2c3ccccc3CSc3ccc(Cl)cc32)CC1 (stereo unspecified) | 16.4 µM [falling, single point] |  |
| Cc1c(N2C(=O)/C(=C3\C(=O)N(CC(=O)O)c4ccccc43)SC2=S)c(=O)n(-c2ccccc2)n1C | 25.1 µM [falling, single point] |  |
| CN(C)c1ccc(/C=C/c2ccc3ccccc3n2)cc1 | 6.31 µM [falling, partial curve, poor fit] |  |
| COc1ccc(N(CC(=O)Nc2cccc(SC)c2)S(C)(=O)=O)cc1Cl | 10 µM [falling, partial curve, poor fit] |  |
| CCc1ccccc1NC(=O)CN1CCN(C(=O)COc2ccccc2C#N)CC1 | 11.6 µM [falling, partial curve] |  |
| Cc1ccc(-n2c(O)c(/C=N/N3CCOCC3)c(=O)[nH]c2=S)cc1 | 1.46 µM [rising, full curve, poor fit] |  |
